Experimental data from PubChem BioAssay AID743255 (National Center for Advancing Translational Sciences (NCATS), 2014).
Out of some 390,000 compounds screened, about 910 (0.23%) were called active. The inconclusive results got no clear call from the source; some entries with a clear call stand among them for comparison. The call rests on the fitted dose curve; in most records, active means well fitted inhibition curve with a large enough effect; inconclusive means small, poorly fitted or top-dose-only effect; inactive means no such curve, though single readings can be large or run the other way. Potencies beside an inconclusive call are fits to weak or partial responses and may not hold up.
Further: nearly all actives have a fitted effect of over 60% in size.
Potency means the concentration at half of the fitted maximal effect.

Amino acid sequences for entries named in this document (tags omitted). A change or cut given only in a name is not applied to a line headed by its entry.
UniProt O94782: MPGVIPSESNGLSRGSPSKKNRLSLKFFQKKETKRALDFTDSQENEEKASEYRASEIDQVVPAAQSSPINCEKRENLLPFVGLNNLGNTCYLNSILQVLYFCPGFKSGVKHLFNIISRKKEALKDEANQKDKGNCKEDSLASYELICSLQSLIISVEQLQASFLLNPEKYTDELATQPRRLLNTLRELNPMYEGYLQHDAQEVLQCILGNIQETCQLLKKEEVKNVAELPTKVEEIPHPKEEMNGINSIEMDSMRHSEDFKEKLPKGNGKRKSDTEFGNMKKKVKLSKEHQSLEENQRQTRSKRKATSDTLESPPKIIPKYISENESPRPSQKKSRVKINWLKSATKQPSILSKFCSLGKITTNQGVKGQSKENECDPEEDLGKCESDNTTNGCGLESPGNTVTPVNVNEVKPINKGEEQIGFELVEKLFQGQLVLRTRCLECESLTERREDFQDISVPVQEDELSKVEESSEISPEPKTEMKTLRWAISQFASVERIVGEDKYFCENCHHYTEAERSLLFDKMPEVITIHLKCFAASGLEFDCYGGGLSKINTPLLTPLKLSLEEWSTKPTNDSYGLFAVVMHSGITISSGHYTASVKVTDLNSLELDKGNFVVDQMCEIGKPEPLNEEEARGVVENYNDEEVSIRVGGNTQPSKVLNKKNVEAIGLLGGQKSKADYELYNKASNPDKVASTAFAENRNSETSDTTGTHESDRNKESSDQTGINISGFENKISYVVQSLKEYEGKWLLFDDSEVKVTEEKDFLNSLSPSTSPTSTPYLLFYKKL

Each compound was assayed against Ubiquitin carboxyl-terminal hydrolase 1 (Homo sapiens) (UniProt O94782) (assay: Inhibitors of USP1/UAF1: Primary Screen). Conditions: recombinant USP1/UAF1, Ub-Rhodamine cleavage fluorescence; series mostly up to 57.1 µM.
Procedure, shortened: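 High-throughput fluorogenic screen: 1nM USP1/UAF1 complex, Ub-Rho substrate 150nM final, 50mM HEPES pH 7.8 with 0.5mM EDTA, 0.1 mg/ml BSA, 1mM TCEP and 0.01% Tween-20.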
In the case of `COc1cc(OC)c(NC(=O)NC(C)c2c(-n3cccc3)sc(C)c2C)cc1Cl` (stereo not given), the Potency is reported as inconclusive: 0.355 µM [inhibitor, full curve, poor fit].
`CCOC(=O)/C(=N\Nc1ccc(OC)cc1)c1csc(Nc2ccccc2)n1` was tested, and the Potency was “inactive”.
`CCC1CCc2nc3sc(C(=O)Nc4ccc(F)cc4F)c(N)c3cc2C1` (stereo not given) was tested, and the Potency was inconclusive: 6.31 µM [inhibitor, single point].
With `C=CCC(C(=O)NC(C)c1ccccc1)C(=O)NC(C)c1ccccc1` (stereo not given) the Potency was “inactive”.
In the case of `CC(=O)C1(O)C(C)CC2C3CC=C4CC(O)CCC4(C)C3CCC21C` (stereo not given), the Potency is reported as inconclusive: 50.1 µM [inhibitor, partial curve, poor fit].
For `CN(CC(=O)Nc1c(Cl)cccc1Cl)C(=O)c1sccc1-c1ccccc1`, the Potency was inconclusive: 4.47 µM [inhibitor, full curve, poor fit].
With `CC(=O)N(C(C)=O)c1c(C#N)c(C)n(-c2ccccc2)c1C(=O)c1ccccc1` the Potency was inconclusive: 3.55 µM [inhibitor, full curve].
For `COc1ccc(/C(C)=N/NC(=O)c2ccc(CSc3cccc4cccnc34)cc2)cc1OC`, the Potency was inconclusive: 4.47 µM [inhibitor, partial curve].
For `O=C(NCc1cccnc1)C1CCN(Cc2cc3ccccc3n2Cc2cccc(Cl)c2)CC1`, the Potency was inconclusive: 3.55 µM [inhibitor, full curve, poor fit].
For `O=C(CS(=O)(=O)c1ccc(Cl)cc1)N1CCN(c2ccccc2)CC1`, the Potency was inconclusive: 0.224 µM [inhibitor, full curve, poor fit].
For `COc1ccc(NCc2nnc(SCC(=O)N3CCCc4ccccc43)n2C)cc1`, the Potency was “inactive”.
For `CCCSc1nnc(NC(=O)CSc2sc3c(O)cc(=O)[nH]c3c2C#N)s1`, the Potency was inconclusive: 44.7 µM [inhibitor, single point].
For `COC(=O)C1=CN(c2cccc(C)c2)C=C(C(=O)OC)C1c1cc(OC)c(O)c([N+](=O)[O-])c1`, the Potency was “inactive”.
With `Cc1ccc(NC(=O)c2oc3ccccc3c2NC(=O)c2cc3ccccc3o2)cc1` the Potency was “inactive”.
With `CCn1c2ccccc2c2cc(NC(=O)COc3cccc(C)c3)ccc21` the Potency was inconclusive: 79.4 µM [inhibitor, partial curve, poor fit].
`C[C@H](CO)N1C[C@H](C)[C@@H](CN(C)S(=O)(=O)c2ccccc2)Oc2c(NC(=O)Nc3ccc4c(c3)OCO4)cccc2C1=O` was tested, and the Potency was inconclusive: 44.7 µM [inhibitor, partial curve, poor fit].
In the case of `Cc1ccc2oc(=O)c(/C=C(\O)c3ccco3)nc2c1`, the Potency is reported as inconclusive: 31.6 µM [inhibitor, partial curve, poor fit].
For `CN(Cc1ccccc1)Cc1nc2c(c(=O)n(C)c(=O)n2C)n1CCCc1ccccc1`, the Potency was inconclusive: 2.82 µM [inhibitor, partial curve].
In the case of `Cc1cccc(CNC(=O)Cn2ccc3cc(S(=O)(=O)N4CCCC4)ccc32)c1`, the Potency is reported as inconclusive: 0.708 µM [inhibitor, full curve, poor fit].
In the case of `Cn1cc(CN2CCCC(CO)(Cc3ccccc3)C2)c2ccccc21` (stereo not given), the Potency is reported as inconclusive: 35.5 µM [inhibitor, partial curve].
In the case of `CC(=O)N1CCCc2cc(S(=O)(=O)N(C)CC(=O)Nc3cccc(C)c3C)ccc21`, the Potency is reported as inconclusive: 4.47 µM [inhibitor, partial curve].
For `CCOc1ccc(CCNC(=O)c2cn(CC)c3ccc(S(=O)(=O)N4CCCCCC4)cc3c2=O)cc1OCC`, the Potency was inconclusive: 11.2 µM [inhibitor, full curve, poor fit].
In the case of `Cc1ccc(OCC(=O)N/N=C/c2cccnc2)cc1C`, the Potency is reported as inconclusive: 22.4 µM [inhibitor, partial curve].
For `CCN1C(=O)[C@H]2[C@@H](c3ccc(-c4ccc(OC)cc4)c(OC)c3)N[C@@](CC(C)C)(C(=O)OC)[C@H]2C1=O`, the Potency was inconclusive: 39.8 µM [inhibitor, single point].
In the case of `O=C(NCc1ccccc1)c1nc[nH]c1C(=O)N1CCN(c2ccccc2)CC1`, the Potency is reported as inconclusive: 1 µM [inhibitor, full curve, poor fit].
In the case of `CN1CCC(=O)N(CCSc2ccc(Br)cc2)CC1`, the Potency is reported as inconclusive: 39.8 µM [inhibitor, partial curve, poor fit].
For `COc1ccc(-c2nnc(SCC(=O)NCc3cccs3)n2CC(C)C)cc1`, the Potency was “inactive”.
In the case of `CCCCC(=Nc1ccc(N)cc1)C1=C(O)C(C(=O)OC)C(C)(C)CC1=O` (stereo not given), the Potency is reported as inconclusive: 14.1 µM [inhibitor, partial curve].
With `O=c1c2ccccc2sn1-c1ccc(Cl)cc1Cl` the Potency was “inactive”.
For `COc1c2ccoc2c(OC(C)=O)c2oc(C)cc(=O)c12`, the Potency was “inactive”.
With `COc1ccc(-n2ncc3c(SCC(=O)N4CCN(c5ccccc5OC)CC4)ncnc32)cc1` the Potency was “inactive”.
In the case of `CCOc1cc(C(c2c(C)[nH][nH]c2=O)c2c(C)[nH][nH]c2=O)ccc1OCc1ccc([N+](=O)[O-])cc1`, the Potency is reported as “inactive”.
In the case of `CCOc1cc(/C=C2/C(=N)N3C=CSC3=NC2=O)ccc1OCCCOc1ccccc1C`, the Potency is reported as inconclusive: 39.8 µM [inhibitor, partial curve].
For `COc1ccc(OC)c(Nc2nc(NCc3ccco3)c3ccccc3n2)c1`, the Potency was “inactive”.
With `CCOC(=O)c1[nH]c2ccccc2c1NC(=O)C1CCCC1` the Potency was inconclusive: 0.708 µM [inhibitor, full curve].
With `CC1(C)CC(NCCN2CCN(C3=CC(=C(C#N)C#N)CC(C)(C)C3)CC2)=CC(=C(C#N)C#N)C1` the Potency was “inactive”.
With `Cc1ccc(N(C)S(=O)(=O)c2nnc(NC(=O)C3CCCCC3)s2)cc1` the Potency was inconclusive: 14.1 µM [inhibitor, partial curve, poor fit].
With `O=C(CC1N=C2c3ccccc3N=C(SCc3ccccc3F)N2C1=O)NCc1ccc2c(c1)OCO2` (stereo not given) the Potency was inconclusive: 50.1 µM [inhibitor, partial curve, poor fit].
`O=C1c2[nH]nc(-c3ccc(Br)cc3)c2C(c2cccc(O)c2)N1c1ccc(Cl)cc1` (stereo not given) was tested, and the Potency was “inactive”.
`O=C(NCc1ccccn1)c1ccc(COc2ccc(Cl)cc2)o1` was tested, and the Potency was inconclusive: 0.447 µM [inhibitor, full curve, poor fit].
